Measurements reported in article PMC7738167.
These are yes or no findings as the source states them, for the method shown. Binding seen in cells or lysates may run through a third protein. Binding calls can cover weak binding; strength is not graded here. Sequences can lack the tags named with a protein.

Target: cucumber mosaic virus (Fny strain) 2a protein fused to a split YFP half (cucumber mosaic virus, strain Fny)
Assay: split reporter; sYFPn and sYFPc fusions co-agroinfiltrated into N. benthamiana leaves, YFP fluorescence by confocal laser scanning microscopy

B1: cucumber mosaic virus (Fny strain) 1a protein fused to a split YFP half (protein, UniProt P17769 1-993)
chain: MATSSFNINELVASHGDKGLLATALVDKTAHEQLEEQLQHQRRGRKVYIRNVLGVKDSEVIRNRYGGKYDLHLTQQEFAPHGLAGALRLCETLDCLDSFPSSGLRQDLVLDFGGSWVTHYLRGHNVHCCSPCLGIRDKMRHAERLMNMRKIILNDPQQFDGRQPDFCTQPAADCKVQAHFAISIHGGYDMGFRGLCEAMNAHGTTILKGTMMFDGAMMFDDQGVIPELNCQWRKIRSAFSETEDVTPLVGKLNSTVFSRVRKFKTMVAFDFINESTMSYVHDWENIKSFLTDQTYSYRGMTYGIERCVIHAGIMTYKIIGVPGMCPPELIRHCIWFPSIKDYVGLKIPASQDLVEWKTVRILTSTLRETEEIAMRCYNDKKAWMEQFKVILGVLSAKSSTIVINGMSMQSGERIDINDYHYIGFAILLHTKMKYEQLGKMYDMWNASSISKWFAALTRPLRVFFSSVVHALFPTLRPREEKEFLIKLSTFVTFNEECSFDGGEEWDVISSAAYVATQAVTDGKILAAQKAEKLAEKLAQPVSEVSDSPETSSQTPDDTADVCGREREVSELDSLSAQTRSPITRVAERATAMLEYAAYEKQLHDTTVSNLKRIWNMAGGDDKRNSLEGNLKFVFDTYFTVDPMVNIHFSTGRWMRPVPEGIVYSVGYNERGLGPKSDGELYIVNSECVICNSESLSTVTRSLQAPTGTISQVDGVAGCGKTTAIKSIFEPSTDMIVTANKKSAQDVRMALFKSSDSKEACTFVRTADSVLLNECPTVSRVLVDEVVLLHFGQLCAVMSKLKAVRAICFGDSEQIAFSSRDASFDMRFSKIIPDETSDADTTFRSPQDVVPLVRLMATKALPKGTHSKYTKWVSQSKVKRSVTSRAIASVTLVDLDSSRFYITMTQADKASLISRAKEMNLPKTFWNERIKTVHESQGISEDHVTLVRLKSTKCDLFKQFSYCLVALTRHKVTFRYEYCGVLNGDLIAECVARA
  binding: binds
